Assay results taken from PubChem BioAssay AID504834 (National Center for Advancing Translational Sciences (NCATS), 2011).
Screen size: about 320,000 compounds; about 22,000 (6.9%) were called active. Inconclusive results, whose numbers are uncertain, are shown with a selection of clear calls. Calls follow the shape of the dose curve; as a rule, active = well fitted inhibition curve with a large enough effect; inconclusive = small, poorly fitted or top-dose-only effect, or another doubt; inactive = no such curve, though single readings can be large or run the other way. Potencies beside an inconclusive call are fits to weak or partial responses and may not hold up.

experiment: Primary qHTS for delayed death inhibitors of the malarial parasite plastid, 96 hour incubation; conditions: P. falciparum luciferase reporter growth; series mostly up to 28.7 µM
Method in brief: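 Readout is luminescence from an integrated firefly luciferase in P. falciparum. Red cells, 2% hematocrit and 0.05% parasitemia final, were cultured with compound through two parasite generations (96 hours) at 37 C, 5% CO2.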
Potency is read from the fitted curve at half-maximal effect.

Compound | Potency
O=C(COC(=O)COc1ccc(Cl)cc1)NC1CC1 | inactive
Cc1ccc(S(=O)(=O)N(C)C)cc1NC(=O)C1CCCCN1S(=O)(=O)c1ccccc1 (stereo unspecified) | inconclusive: 14.7 µM [inhibitor, single point]
COc1cccc(C(=O)N2CCOCC2)c1OC | inconclusive: 10.4 µM [inhibitor, single point]
COc1ccccc1N(C(C)=O)c1nc(C)cc(C)c1C#N | active: 9.28 µM
COc1ccc(CCNC(=O)CCCCCNC(=O)N2CCn3c2nc2ccccc23)cc1OC | active: 14.7 µM
COc1ccccc1N(C(=O)c1snc(C(N)=O)c1N)C(C(=O)NC1CCCC1)c1ccc2ncccc2c1 (stereo unspecified) | inactive
Cc1ccc(C)c(COc2coc(CN3CCN(C(=O)c4ccco4)CC3)cc2=O)c1 | inconclusive: 2.08 µM [inhibitor, partial curve, poor fit]
CC(=O)c1cccc(NC(=O)Cn2cnc(S(=O)(=O)N3CCc4ccccc43)c2)c1 | inconclusive: 1.85 µM [inhibitor, full curve]
COc1ccccc1CN1CC(C(=O)NCc2ncccc2C)CCC1=O (stereo unspecified) | inactive
O=C(CSc1nnnn1-c1cccc(O)c1)NC1CC1 | inconclusive: 14.7 µM [inhibitor, partial curve, poor fit]
Cc1sc(NC(=O)c2ccccc2)c(C(=O)NC(C)C)c1C | inactive
O=C(CN1CCN(C(=O)c2ccco2)CC1)NCc1ccc(Cl)cc1 | inactive
O=C(NCCCN1CCCC1)c1cccc(N2CCCC2=O)c1 | inconclusive: 2.94 µM [inhibitor, partial curve, poor fit]
Cc1ccc(N(C)S(=O)(=O)c2cccc(C(=O)Nc3nc4ccccc4[nH]3)c2)cc1 | inconclusive: 9.28 µM [inhibitor, partial curve, poor fit]
Nc1cc(C(F)(F)F)ccc1OCC1CCCO1 (stereo unspecified) | inactive
COC(=O)c1cc(O)cc(OC)c1C(=O)c1c(O)cc(C)cc1O | active: 5.22 µM
COC(=O)C1=C(c2ccc3ccccc3c2)C[C@@H]2CC[C@H]1N2C(=O)N1CCCCC1 | inconclusive: 20.8 µM [inhibitor, partial curve, poor fit]
CCC1CCCCN1C(=O)CSc1nnc(CNC(=O)COc2ccc(Cl)cc2)o1 (stereo unspecified) | inactive
Cc1ccc2oc(=O)c(-c3ccc(O)cc3)c(C)c2c1 | inactive
COc1cc(CN2CCCC(C(=O)c3sccc3C)C2)cc(OC)c1O (stereo unspecified) | inconclusive: 18.5 µM [inhibitor, single point]
CN1CCN(CCCNC(=O)c2cn(C)c3ccc(S(=O)(=O)N(C)C)cc3c2=O)CC1 | inconclusive: 10.4 µM [inhibitor, single point]

Look-ups from above.
O=C(NCCCN1CCCC1)c1cccc(N2CCCC2=O)c1 | Potency: inconclusive: 2.94 µM [inhibitor, partial curve, poor fit]
Cc1ccc(S(=O)(=O)N(C)C)cc1NC(=O)C1CCCCN1S(=O)(=O)c1ccccc1 (stereo unspecified) | Potency: inconclusive: 14.7 µM [inhibitor, single point]
